{"source": "PubChem BioAssay AID493246, Drosophila RNAi Screening Center | 2011", "purpose": "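Genome-wide search for dsRNAs that reduce cell number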 (primary screen)", "system": "Drosophila Kc and S2R+ cells", "knock-down reagent": "long dsRNA against Drosophila genes", "measurement": "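Cell number per well after knock-down, printed as raw plate values; calls were based on per-plate z-scores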", "direction": "Kc cell number and S2R+ cell number: higher = more cells remaining", "rule for the call": "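Active when the per-plate z-score of cell number is 3 or more in the direction of fewer cells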", "note": "In all, the deposit lists about 21,000 reagents; this is an unselected part of those with a known target gene and a result. Over the whole deposit, 429 (2%) were called active. 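Values are raw and not normalised between plates; calls rest on per-plate z-scores that were not deposited.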 A plus sign joins genes that one reagent is predicted to hit. No sequences are given here. Not stated in the record: the amount of reagent, the time to read-out."}
{"Target gene": "cni", "amplicon": "DRSC03512", "Kc cell number, rep 1": 1.80e6, "Kc cell number, rep 2": 1.87e6, "S2R+ cell number, rep 1": 1.19e6, "S2R+ cell number, rep 2": 1.34e6, "Outcome": "inactive"}
{"Target gene": "MED19", "amplicon": "DRSC10516", "Kc cell number, rep 1": 1.33e6, "Kc cell number, rep 2": 1.48e6, "S2R+ cell number, rep 1": 9.59e5, "S2R+ cell number, rep 2": 9.98e5, "Outcome": "inactive"}
{"Target gene": "Uch-L5R", "amplicon": "DRSC19825", "Kc cell number, rep 1": 1.49e6, "Kc cell number, rep 2": 1.47e6, "S2R+ cell number, rep 1": 9.55e5, "S2R+ cell number, rep 2": 1.00e6, "Outcome": "inactive"}
{"Target gene": "eIF2Bgamma", "amplicon": "DRSC07100", "Kc cell number, rep 1": 1.39e6, "Kc cell number, rep 2": 1.40e6, "S2R+ cell number, rep 1": 1.14e6, "S2R+ cell number, rep 2": 1.19e6, "Outcome": "inactive"}
{"Target gene": "Lamtor4", "amplicon": "DRSC08436", "Kc cell number, rep 1": 1.40e6, "Kc cell number, rep 2": 1.27e6, "S2R+ cell number, rep 1": 1.01e6, "S2R+ cell number, rep 2": 1.24e6, "Outcome": "inactive"}
{"Target gene": "MFS16", "amplicon": "DRSC04051", "Kc cell number, rep 1": 1.56e6, "Kc cell number, rep 2": 1.61e6, "S2R+ cell number, rep 1": 1.21e6, "S2R+ cell number, rep 2": 2.95e5, "Outcome": "inactive"}
{"Target gene": "mdy", "amplicon": "DRSC01559", "Kc cell number, rep 1": 1.41e6, "Kc cell number, rep 2": 1.48e6, "S2R+ cell number, rep 1": 8.68e5, "S2R+ cell number, rep 2": 1.06e6, "Outcome": "inactive"}
{"Target gene": "mdy", "amplicon": "DRSC02250", "Kc cell number, rep 1": 1.35e6, "Kc cell number, rep 2": 1.43e6, "S2R+ cell number, rep 1": 1.35e6, "S2R+ cell number, rep 2": 1.44e6, "Outcome": "inactive"}
{"Target gene": "Gr97a", "amplicon": "DRSC13802", "Kc cell number, rep 1": 1.32e6, "Kc cell number, rep 2": 1.48e6, "S2R+ cell number, rep 1": 1.05e6, "S2R+ cell number, rep 2": 1.10e6, "Outcome": "inactive"}
{"Target gene": "Amy-d + Amy-p", "amplicon": "DRSC21242", "Kc cell number, rep 1": 1.47e6, "Kc cell number, rep 2": 1.48e6, "S2R+ cell number, rep 1": 1.07e6, "S2R+ cell number, rep 2": 1.19e6, "Outcome": "inactive"}
{"Target gene": "GLaz", "amplicon": "DRSC07431", "Kc cell number, rep 1": 1.47e6, "Kc cell number, rep 2": 1.53e6, "S2R+ cell number, rep 1": 1.09e6, "S2R+ cell number, rep 2": 1.22e6, "Outcome": "inactive"}
{"Target gene": "CG4440", "amplicon": "DRSC02747", "Kc cell number, rep 1": 1.68e6, "Kc cell number, rep 2": 1.78e6, "S2R+ cell number, rep 1": 1.23e6, "S2R+ cell number, rep 2": 1.52e6, "Outcome": "inactive"}
{"Target gene": "laf", "amplicon": "DRSC12246", "Kc cell number, rep 1": 1.78e6, "Kc cell number, rep 2": 2.10e6, "S2R+ cell number, rep 1": 1.25e6, "S2R+ cell number, rep 2": 1.33e6, "Outcome": "inactive"}
{"Target gene": "CG8155", "amplicon": "DRSC07084", "Kc cell number, rep 1": 1.25e6, "Kc cell number, rep 2": 1.27e6, "S2R+ cell number, rep 1": 9.37e5, "S2R+ cell number, rep 2": 8.54e5, "Outcome": "inactive"}
{"Target gene": "CG3704", "amplicon": "DRSC18174", "Kc cell number, rep 1": 1.49e6, "Kc cell number, rep 2": 1.47e6, "S2R+ cell number, rep 1": 1.07e6, "S2R+ cell number, rep 2": 1.11e6, "Outcome": "inactive"}
{"Target gene": "CG3704", "amplicon": "DRSC18645", "Kc cell number, rep 1": 1.50e6, "Kc cell number, rep 2": 1.50e6, "S2R+ cell number, rep 1": 1.02e6, "S2R+ cell number, rep 2": 1.11e6, "Outcome": "inactive"}
{"Target gene": "CG12360 (retired record)", "amplicon": "DRSC14505", "Kc cell number, rep 1": 1.58e6, "Kc cell number, rep 2": 1.61e6, "S2R+ cell number, rep 1": 1.03e6, "S2R+ cell number, rep 2": 1.21e6, "Outcome": "inactive"}
{"Target gene": "PCNA", "amplicon": "DRSC07653", "Kc cell number, rep 1": 1.20e6, "Kc cell number, rep 2": 1.27e6, "S2R+ cell number, rep 1": 7.07e5, "S2R+ cell number, rep 2": 7.90e5, "Outcome": "inactive"}
{"Target gene": "CG15260", "amplicon": "DRSC01977", "Kc cell number, rep 1": 1.49e6, "Kc cell number, rep 2": 1.59e6, "S2R+ cell number, rep 1": 1.26e6, "S2R+ cell number, rep 2": 1.40e6, "Outcome": "inactive"}
{"Target gene": "Prosbeta2", "amplicon": "DRSC11257", "Kc cell number, rep 1": 1.10e6, "Kc cell number, rep 2": 1.20e6, "S2R+ cell number, rep 1": 5.93e5, "S2R+ cell number, rep 2": 7.20e5, "Outcome": "active"}
{"Target gene": "CG18476", "amplicon": "DRSC15281", "Kc cell number, rep 1": 1.50e6, "Kc cell number, rep 2": 1.60e6, "S2R+ cell number, rep 1": 1.25e6, "S2R+ cell number, rep 2": 1.29e6, "Outcome": "inactive"}
{"Target gene": "Coq4 + Gorab + frc", "amplicon": "DRSC10383", "Kc cell number, rep 1": 1.51e6, "Kc cell number, rep 2": 1.64e6, "S2R+ cell number, rep 1": 1.31e6, "S2R+ cell number, rep 2": 1.51e6, "Outcome": "inactive"}
{"Target gene": "CG31867", "amplicon": "DRSC03338", "Kc cell number, rep 1": 1.73e6, "Kc cell number, rep 2": 1.73e6, "S2R+ cell number, rep 1": 1.19e6, "S2R+ cell number, rep 2": 1.36e6, "Outcome": "inactive"}
{"Target gene": "CG6901", "amplicon": "DRSC16129", "Kc cell number, rep 1": 1.41e6, "Kc cell number, rep 2": 1.54e6, "S2R+ cell number, rep 1": 1.16e6, "S2R+ cell number, rep 2": 1.30e6, "Outcome": "inactive"}
{"Target gene": "Fer1", "amplicon": "DRSC12507", "Kc cell number, rep 1": 1.72e6, "Kc cell number, rep 2": 1.85e6, "S2R+ cell number, rep 1": 1.37e6, "S2R+ cell number, rep 2": 1.59e6, "Outcome": "inactive"}
{"Target gene": "Fer1", "amplicon": "DRSC12555", "Kc cell number, rep 1": 1.65e6, "Kc cell number, rep 2": 2.02e6, "S2R+ cell number, rep 1": 1.15e6, "S2R+ cell number, rep 2": 1.20e6, "Outcome": "inactive"}
{"Target gene": "AsnRS", "amplicon": "DRSC01990", "Kc cell number, rep 1": 1.37e6, "Kc cell number, rep 2": 1.38e6, "S2R+ cell number, rep 1": 1.23e6, "S2R+ cell number, rep 2": 1.24e6, "Outcome": "inactive"}

Targets above whose target name starts with A or a:
{"Target gene": "Amy-d + Amy-p", "amplicon": "DRSC21242", "Kc cell number, rep 1": 1.47e6, "Kc cell number, rep 2": 1.48e6, "S2R+ cell number, rep 1": 1.07e6, "S2R+ cell number, rep 2": 1.19e6, "Outcome": "inactive"}
{"Target gene": "AsnRS", "amplicon": "DRSC01990", "Kc cell number, rep 1": 1.37e6, "Kc cell number, rep 2": 1.38e6, "S2R+ cell number, rep 1": 1.23e6, "S2R+ cell number, rep 2": 1.24e6, "Outcome": "inactive"}
